Consider 18 sequences from the supplement of paper PMC12764529.

A short description of data set [1]: folding stability dG unfold from trypsin proteolysis; higher = more stable. On the procedure:
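Folding stability of de novo designed mini-proteins (<80 aa, no Cys; designed by TrROS, TrMRF, ProteinMPNN and the joint model) was measured by cDNA display proteolysis with trypsin and chymotrypsin. Each protease was used at 11 concentrations in a threefold dilution series plus a no-protease condition. K50 was inferred by Bayesian fitting of sequencing counts, and dG unfold was derived against a sequence-predicted unfolded-state K50 (Tsuboyama et al. method). Sequences shown include variable-length N-terminal GS-type padding (SAGGSAGG...) inside a display construct carrying a PA tag. Rows were kept only if the AF2 dimer inter-PAE was >15, to exclude likely homo-oligomers.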

The nature of data set [2]: folding stability dG unfold from chymotrypsin proteolysis; higher = more stable. The procedure, abridged:
(§1)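 Only designs with AlphaFold2 dimer inter-PAE above 15 were retained; each was a mini-protein under 80 residues with no cysteine, in a PA-tagged cDNA display construct. After digestion with trypsin and chymotrypsin and sequencing, K50 was inferred by Bayesian fitting of counts, and unfolding free energy was derived per protease or combined against a sequence-predicted unfolded-state K50 and a shared folded-state K50.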

Data set [3] is described as follows: folding stability dG unfold (combined trypsin and chymotrypsin); higher = more stable. The procedure, abridged: as §1

± gives the half width of the 95% confidence interval. The two proteases of the assay disagree for many of these sequences.

Turning to “SAGGSAGGSAGGGSMPVTERIPGSPSSVTTTTFPDGTVTTETTAGPPVTLSPAGGSTLVSAGGSAGGSAGGS [r10_664_JUSTAS]”, the entries for the “folding stability dG unfold” value in data set [1], in data set [2] and in data set [3] were 0.97 ± 0.073 kcal/mol, 1.09 ± 0.058 kcal/mol and 1.08 ± 0.11 kcal/mol, respectively.
“SAGGSAGGSAGGYFIRINNGRTFPFPSPEDAEEIVKTIARPFGHPDMTIEIYRMPPEQFPSAGGSAGGSAGG [r7_839_TrROS]”: the figures for the “folding stability dG unfold” value in data set [1], in data set [2] and in data set [3] were -0.0675 ± 0.22 kcal/mol, -0.1 ± 0.24 kcal/mol and 0.0194 ± 0.18 kcal/mol, respectively.
The like results for “SKKVKIVSIEFDKETGTITIKIKLEDGTTYTLTINPDGTVTITNKDTGKTITITFVDGKLVITISDDVKPSA [r9_233_TrROS_Hall]” were, in that order, 3.22 ± 0.1 kcal/mol, 5.25 ± 0.12 kcal/mol and 5.23 ± 0.29 kcal/mol.
The matching figures for “SAGGWWYRIKIEITFPNGKTHTYPIPGIRSVAEIKNHLREQGIDNPPNVPIEVKEIEPFPPVPPEDMKSAGG [r13_493_TrROS]”: 0.969 ± 0.096 kcal/mol, 3.24 ± 0.065 kcal/mol and 2.62 ± 0.4 kcal/mol.
The matching figures for “SAGGSAGGSAGGSMKITKVIEDPALLAAGGYTTTELEDGSVVYTLPNGEVLTEKLPPGLSAGGSAGGSAGGS [r4_373_JUSTAS]”: -0.957 ± 0.36 kcal/mol, 1.5 ± 0.083 kcal/mol and 0.91 ± 0.13 kcal/mol.
Regarding “SAGGSAGGSAGAGKVVFEVDIKTFLGKRKDGSDAPKTIIEIKVFDIAPLDPNDPVLKALISAGGSAGGSAGG [r11_236_TrMRF]”, the “folding stability dG unfold” value is 2.28 ± 0.11 kcal/mol in data set [1], 3.54 ± 0.15 kcal/mol in data set [2] and 3.26 ± 0.22 kcal/mol in data set [3].
The like results for “SAGGSAGGKKIKIEIIYDKENNKLYIYVVDENTKKVYRYEFNKNGKLIKVEPVKEVKPGEVIPLSAGGSAGG [r6_148_TrROS_Hall]” were, in that order, 1.96 ± 0.15 kcal/mol, 2.49 ± 0.16 kcal/mol and 2.32 ± 0.22 kcal/mol.
As to “SAGGSAGGSSYTTSTATDPNADVTTTTTTYPDSIVTPVWDPRTGKVVETVTTTPDGTTTTVAASAGGSAGGS [r12_563_JUSTAS]”, the “folding stability dG unfold” value in data set [1] amounted to 0.543 ± 0.068 kcal/mol; in data set [2], 0.0262 ± 0.17 kcal/mol; in data set [3] it was 0.289 ± 0.14 kcal/mol.
As for “SAEEELRKLVEELARELAKENGLEEVTVTLTVTVTKTVTVTDADGKKHTVTTTVTVTLTVTLTLPPEDLSAG [r14_232_TrROS_Hall]”, the “folding stability dG unfold” value is 3.94 ± 0.89 kcal/mol in data set [1] and more than 6 kcal/mol in data set [3].
The matching figures for “SAGGSAGGDGDFRVSIDPEELPDGQEYKISIQSPDGKPIAEIPIRIPLPPPKPERDDNGKPKPVSAGGSAGG [r6_487_TrROS]”: 0.844 ± 0.025 kcal/mol and 0.216 ± 0.099 kcal/mol.
For the sequence “SAGGSAGGSAGGSMTRVFVRKPDYWLEVEEYPDPKNPDRIRLTVKKKIPLSEVTPEELASAGGSAGGSAGGS [r4_316_JUSTAS]”, the “folding stability dG unfold” value in data set [1] is -0.0403 ± 0.26 kcal/mol.
In the case of “SAGGSAGGSAGGSMIEVELTSPESGSLTIKVPPDSSYTVTIGSSPVKITVTPNEVVATPVSAGGSAGGSAGG [r7_510_JUSTAS]”, the “folding stability dG unfold” value in data set [1] is 1.34 ± 0.059 kcal/mol; in data set [3] it was 0.482 ± 0.12 kcal/mol.
Consider “SAGGSAGGSKVKKIELKLEFEFKVKVKTKTKDGKEKEEEKEVKVEIKLKFTFDKNGKLIKIEPSAGGSAGGS [r20_58_TrROS_Hall]”, for which the “folding stability dG unfold” value stood at 2.08 ± 0.19 kcal/mol in data set [1] and 4.66 ± 0.4 kcal/mol in data set [2].
Consider “SAGGSAGGSAGGSSVETSTLPDGSVVETTRLPDGGVVVTEATVPPDGSVTVTSTSVLPLSAGGSAGGSAGGS [r4_246_JUSTAS]”, for which the “folding stability dG unfold” value in data set [1] amounted to 2.03 ± 0.11 kcal/mol; in data set [3], 1.13 ± 0.13 kcal/mol.
For the sequence “SAGGSAGGSAGGLKPGDPVIIPIRIEMEHYDPGGGKPIHEHEFPITILIPPGQNPEEITFSAGGSAGGSAGG [r7_591_TrROS]”, the results for the “folding stability dG unfold” value in data set [1] and in data set [3] were 1.16 ± 0.057 kcal/mol and 0.61 ± 0.071 kcal/mol, respectively.
The like results for “SAGGSAGGSSVAYVKDPNNPVPVKLPVEAVLEAIESGKPTDLKDPSGDEVVTITNPTDLVIEDSSAGGSAGG [r6_509_JUSTAS]” were, in that order, 1.12 ± 0.075 kcal/mol and 0.323 ± 0.059 kcal/mol.
The like results for “SAGGSAGGSAGGSVIVTNSPEDADIVAGLLREVLSALVPEPATAENVPVVIEVVDDNVTSAGGSAGGSAGGS [r4_498_TrMRF]” were, in that order, 1.07 ± 0.023 kcal/mol and 0.152 ± 0.094 kcal/mol.
As to “SKIEITPDGSVRITLTLTFTLEDGYEITIKVEVTINVDGEISVSVSIEIRPLPPPPPEKVVVLDEDGKLVSA [r9_1168_TrROS_Hall]”, the “folding stability dG unfold” value in data set [1] is 2.73 ± 0.17 kcal/mol; in data set [2], 5.36 ± 0.3 kcal/mol.
